Data taken from paper PMC10480500.
No constants are given. Whether binding was seen depends on the method and setting. Binding calls can cover weak binding; strength is not graded here.

The chains behind the UniProt entries cited, without tags or fusion partners. Where a name states a change or a piece, a line headed by the entry shows the natural chain unless it says otherwise.
UniProt P69541: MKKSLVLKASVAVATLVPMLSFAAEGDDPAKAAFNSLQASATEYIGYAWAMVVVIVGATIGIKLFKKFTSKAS

How the values were obtained:
[1] = biological target: T1, minor coat protein pIX (bacteriophage M13) (UniProt P69538); experiment: cryo-EM structure; purified M13 mini phage particle (assembled in E. coli TG1 with helper phage M13KO7), 0.6-0.8 mg/ml; whole particle 3.5 Å with 5-fold symmetry; top, middle and bottom segments refined separately at 3.5, 3.1 and 3.3 Å; both purified
T1 sequence: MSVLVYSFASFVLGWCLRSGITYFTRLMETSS

[2] = biological target: T2, minor coat protein pVII (bacteriophage M13) (UniProt P69535); experiment: as above
T2 sequence: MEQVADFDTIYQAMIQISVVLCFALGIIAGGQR

major coat protein pVIII (from UniProt P69541)
binding [1]: binds | binding [2]: binds
